The results in this text go back to PMC7948406.

Amino acid sequences for entries named in this document (tags omitted). A change or cut given only in a name is not applied to a line headed by its entry.
UniProt E9Q2Z1: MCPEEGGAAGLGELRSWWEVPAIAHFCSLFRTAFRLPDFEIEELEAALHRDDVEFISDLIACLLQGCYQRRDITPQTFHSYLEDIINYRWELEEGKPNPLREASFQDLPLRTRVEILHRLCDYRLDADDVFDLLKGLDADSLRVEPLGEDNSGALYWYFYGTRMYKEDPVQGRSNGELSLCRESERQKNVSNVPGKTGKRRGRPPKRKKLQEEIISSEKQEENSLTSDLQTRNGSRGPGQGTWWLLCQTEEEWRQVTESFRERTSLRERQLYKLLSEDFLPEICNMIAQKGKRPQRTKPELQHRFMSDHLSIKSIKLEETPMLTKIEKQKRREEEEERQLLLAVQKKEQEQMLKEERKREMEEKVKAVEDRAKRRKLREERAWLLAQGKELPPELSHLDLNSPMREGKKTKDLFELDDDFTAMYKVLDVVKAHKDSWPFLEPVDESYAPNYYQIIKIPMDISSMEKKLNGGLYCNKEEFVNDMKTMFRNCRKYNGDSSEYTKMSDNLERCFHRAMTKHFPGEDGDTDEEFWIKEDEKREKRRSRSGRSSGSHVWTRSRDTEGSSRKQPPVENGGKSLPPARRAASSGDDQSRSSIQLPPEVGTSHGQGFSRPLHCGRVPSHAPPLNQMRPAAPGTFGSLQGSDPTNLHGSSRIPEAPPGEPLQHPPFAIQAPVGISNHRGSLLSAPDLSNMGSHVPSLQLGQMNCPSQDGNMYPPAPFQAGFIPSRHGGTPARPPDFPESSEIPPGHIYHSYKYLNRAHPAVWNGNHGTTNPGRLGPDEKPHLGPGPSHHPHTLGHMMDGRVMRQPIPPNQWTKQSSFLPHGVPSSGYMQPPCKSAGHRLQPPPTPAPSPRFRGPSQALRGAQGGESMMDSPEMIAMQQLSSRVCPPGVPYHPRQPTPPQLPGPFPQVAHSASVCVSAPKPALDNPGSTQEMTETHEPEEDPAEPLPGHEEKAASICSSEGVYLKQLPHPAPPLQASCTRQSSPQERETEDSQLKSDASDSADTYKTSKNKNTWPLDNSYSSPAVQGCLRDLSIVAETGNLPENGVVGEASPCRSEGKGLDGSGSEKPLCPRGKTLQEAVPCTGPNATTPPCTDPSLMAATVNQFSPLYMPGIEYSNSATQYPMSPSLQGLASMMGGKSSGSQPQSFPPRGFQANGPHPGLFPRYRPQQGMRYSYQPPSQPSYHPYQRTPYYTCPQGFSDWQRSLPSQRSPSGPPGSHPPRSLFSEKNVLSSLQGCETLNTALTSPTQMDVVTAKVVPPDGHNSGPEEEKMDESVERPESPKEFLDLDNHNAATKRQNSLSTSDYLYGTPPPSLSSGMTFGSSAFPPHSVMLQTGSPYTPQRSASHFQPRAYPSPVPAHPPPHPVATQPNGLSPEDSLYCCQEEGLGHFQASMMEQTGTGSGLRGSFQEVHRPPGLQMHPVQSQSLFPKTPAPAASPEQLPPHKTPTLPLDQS
UniProt Q6PGB8: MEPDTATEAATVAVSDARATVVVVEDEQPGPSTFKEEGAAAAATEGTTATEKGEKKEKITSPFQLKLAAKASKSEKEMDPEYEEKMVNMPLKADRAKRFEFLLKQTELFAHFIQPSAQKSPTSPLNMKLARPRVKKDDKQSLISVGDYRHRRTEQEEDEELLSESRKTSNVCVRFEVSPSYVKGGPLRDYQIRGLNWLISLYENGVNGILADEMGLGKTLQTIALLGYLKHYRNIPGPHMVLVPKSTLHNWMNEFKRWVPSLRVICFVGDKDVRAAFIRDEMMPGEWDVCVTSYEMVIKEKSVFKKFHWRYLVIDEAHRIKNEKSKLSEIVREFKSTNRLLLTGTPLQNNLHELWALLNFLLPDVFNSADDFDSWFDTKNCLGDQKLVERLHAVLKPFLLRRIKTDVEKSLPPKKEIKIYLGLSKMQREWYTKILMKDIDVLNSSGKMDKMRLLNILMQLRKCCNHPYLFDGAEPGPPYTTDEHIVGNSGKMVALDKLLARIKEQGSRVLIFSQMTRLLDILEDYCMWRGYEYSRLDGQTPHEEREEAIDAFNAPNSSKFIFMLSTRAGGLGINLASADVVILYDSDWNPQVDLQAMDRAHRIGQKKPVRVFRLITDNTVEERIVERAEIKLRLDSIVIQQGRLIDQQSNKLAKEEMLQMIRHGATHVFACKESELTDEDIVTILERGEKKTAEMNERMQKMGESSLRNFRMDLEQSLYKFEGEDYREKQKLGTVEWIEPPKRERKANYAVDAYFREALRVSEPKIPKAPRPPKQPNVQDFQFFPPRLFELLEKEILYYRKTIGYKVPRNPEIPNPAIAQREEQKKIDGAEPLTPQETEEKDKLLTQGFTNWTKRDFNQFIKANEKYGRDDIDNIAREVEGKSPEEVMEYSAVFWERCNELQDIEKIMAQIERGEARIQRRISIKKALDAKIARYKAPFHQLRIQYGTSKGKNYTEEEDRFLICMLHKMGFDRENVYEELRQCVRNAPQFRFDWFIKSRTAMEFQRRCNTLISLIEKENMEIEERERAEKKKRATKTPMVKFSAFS

These are yes or no findings as the source states them, for the method shown. Binding seen in cells or lysates may run through a third protein. These calls come from enrichment with a bait or labelling near it, and not all partners need be listed. For some assays here: No binding means not detected with the bait.

For one experiment, the target named is Cecr2-3×FLAG (UniProt E9Q2Z1). Kind of experiment: affinity purification with mass spectrometry; whole cell extracts of reprogramming cells at day 3 (50 mM Tris pH 8.0, 150 mM NaCl, 10% glycerol, 0.5% NP40); FLAG antibody or matched IgG overnight at 4 °C, Protein A/G magnetic beads, on-bead digestion, MS.
A further experiment addresses Cecr2 ΔDDT-3×FLAG (UniProt E9Q2Z1). The experiment is described as above.

On to SMARCA1 (from UniProt Q6PGB8 1-1046), for which the binding result in the experiment with Cecr2-3×FLAG is on record as “binds”; with Cecr2 ΔDDT-3×FLAG, “no binding”.
